The source of these data is patent publication US20230357362A1.

Sequences of proteins named here, by UniProt entry; tags and fusion partners are left off. A change or cut given only in a name is not applied to a line headed by its entry. A line that says so, or that is headed by a name, gives the form on record, which may keep a tag or linker.
endogenous fibronectin of human CRC cells (Isoform 10 of Fibronectin OS = Homo sapiens GN = FN1) (P02751, form named): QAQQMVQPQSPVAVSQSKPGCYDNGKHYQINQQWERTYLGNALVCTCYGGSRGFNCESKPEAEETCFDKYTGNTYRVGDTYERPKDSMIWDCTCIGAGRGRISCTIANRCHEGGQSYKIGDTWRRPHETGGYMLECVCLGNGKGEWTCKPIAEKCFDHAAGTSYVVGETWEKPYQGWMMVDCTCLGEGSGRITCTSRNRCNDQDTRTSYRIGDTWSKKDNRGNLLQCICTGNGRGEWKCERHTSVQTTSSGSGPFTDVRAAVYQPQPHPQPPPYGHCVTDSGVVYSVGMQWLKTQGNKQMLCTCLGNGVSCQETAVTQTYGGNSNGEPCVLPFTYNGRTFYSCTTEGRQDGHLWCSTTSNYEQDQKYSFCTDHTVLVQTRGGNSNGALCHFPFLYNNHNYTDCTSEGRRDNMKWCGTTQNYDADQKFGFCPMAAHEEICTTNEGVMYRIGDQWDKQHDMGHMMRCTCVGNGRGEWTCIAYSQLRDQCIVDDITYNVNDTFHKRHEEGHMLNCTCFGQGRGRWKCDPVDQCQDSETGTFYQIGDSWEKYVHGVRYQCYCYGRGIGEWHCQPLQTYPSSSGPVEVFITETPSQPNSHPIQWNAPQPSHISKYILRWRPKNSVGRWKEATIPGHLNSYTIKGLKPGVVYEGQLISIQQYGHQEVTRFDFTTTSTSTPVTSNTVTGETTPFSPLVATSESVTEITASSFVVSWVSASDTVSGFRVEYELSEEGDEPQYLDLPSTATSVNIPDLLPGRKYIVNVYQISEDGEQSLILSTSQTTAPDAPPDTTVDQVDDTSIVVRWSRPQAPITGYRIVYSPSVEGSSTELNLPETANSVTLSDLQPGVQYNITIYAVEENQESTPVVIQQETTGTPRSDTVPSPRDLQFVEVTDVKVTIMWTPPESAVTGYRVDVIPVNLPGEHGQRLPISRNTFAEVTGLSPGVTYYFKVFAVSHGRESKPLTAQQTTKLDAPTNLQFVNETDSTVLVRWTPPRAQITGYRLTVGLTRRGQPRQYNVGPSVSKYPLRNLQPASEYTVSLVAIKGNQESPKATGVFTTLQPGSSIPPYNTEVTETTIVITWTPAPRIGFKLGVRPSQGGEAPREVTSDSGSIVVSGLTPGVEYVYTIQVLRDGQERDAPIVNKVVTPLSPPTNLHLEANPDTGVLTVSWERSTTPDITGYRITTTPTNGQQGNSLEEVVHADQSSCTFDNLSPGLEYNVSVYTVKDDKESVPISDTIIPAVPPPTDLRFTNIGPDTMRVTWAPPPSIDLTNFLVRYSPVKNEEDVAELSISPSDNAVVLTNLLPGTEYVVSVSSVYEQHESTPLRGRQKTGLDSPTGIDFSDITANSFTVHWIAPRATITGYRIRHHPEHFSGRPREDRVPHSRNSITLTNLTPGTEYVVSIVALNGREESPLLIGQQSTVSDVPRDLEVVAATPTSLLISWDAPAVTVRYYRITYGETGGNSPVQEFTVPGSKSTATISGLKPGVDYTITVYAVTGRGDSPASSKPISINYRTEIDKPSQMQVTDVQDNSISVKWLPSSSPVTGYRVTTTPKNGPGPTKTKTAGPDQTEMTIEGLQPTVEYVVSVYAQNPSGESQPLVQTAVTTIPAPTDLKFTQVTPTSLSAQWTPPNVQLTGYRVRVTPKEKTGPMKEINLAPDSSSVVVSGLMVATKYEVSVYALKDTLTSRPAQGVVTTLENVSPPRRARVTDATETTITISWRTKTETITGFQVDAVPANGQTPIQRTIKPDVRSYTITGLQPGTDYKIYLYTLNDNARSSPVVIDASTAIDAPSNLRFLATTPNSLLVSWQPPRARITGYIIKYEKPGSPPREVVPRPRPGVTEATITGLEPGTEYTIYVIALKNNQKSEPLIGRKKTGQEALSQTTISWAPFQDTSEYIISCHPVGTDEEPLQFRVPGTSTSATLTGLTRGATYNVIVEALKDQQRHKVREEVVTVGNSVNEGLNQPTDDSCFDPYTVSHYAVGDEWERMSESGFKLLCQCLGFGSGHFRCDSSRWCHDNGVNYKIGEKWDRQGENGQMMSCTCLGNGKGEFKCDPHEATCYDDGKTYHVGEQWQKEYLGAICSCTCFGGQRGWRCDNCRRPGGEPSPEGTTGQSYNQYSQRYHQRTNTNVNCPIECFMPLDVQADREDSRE

Results are given in words; binding and its absence hold for the method and conditions named. Some binding calls cover weakened binding; strength is not graded here. Sequences can lack the tags named with a protein.

The target in experiment [1] is endogenous fibronectin of human CRC cells (Isoform 10 of Fibronectin OS = Homo sapiens GN = FN1) (Homo sapiens) (UniProt P02751). The experiment is described as follows: immunofluorescence colocalization on HCT116 cells.
For experiment [2] the target is unchanged. The experiment is described as follows: immunofluorescence colocalization on HCT116 cells (FIG. 11D).

B1: His-tagged full-length dysadherin overexpressed in HCT116 cells (protein, human, UniProt Q96DB9 22-178, looked up, not shown: small tags and cut ends)
chain: QTLKDTTSSSSADSTIMDIQVPTRAPDAVYTELQPTSPTPTWPADETPQPQTQTQQLEGTDGPLVTDPETHKSTKAAHPTDDTTTLSERPSPSTDVQTDPQTLKPSGFHEDDPFFYDEHTLRKRGLLVAAVLFITGIIILTSGKCRQLSRLCRNRCR
Take B1: the binding entry in experiment [1] and in experiment [2] was “binds” throughout.
